{
  "source": "PubChem BioAssay (NCATS)",
  "note": "This list was built around the results that the source calls inconclusive (neither active nor inactive); the mix of calls is not that of the screen. Where the call is inconclusive, the potency comes from a doubtful curve fit. The source made the active and inactive calls. Calls come from the whole dose curve; as a rule, active = well fitted cell-killing curve with a large enough effect; inconclusive = small, poorly fitted or top-dose-only effect, or effect the other way; inactive = no such curve, though single readings can be large or run the other way. Potency is the fitted concentration of half-maximal effect.",
  "data": [
    {"experiment": "Quantitative High-Throughput drug screen in 47 multiple myeloma cell lines against the NCATS MIPE library collection: KMS28PE_JCRB cell viability assay (AID 1918983); note: nearly all actives have a fitted effect of over 35% in size", "conditions": "KMS28PE multiple myeloma viability, CellTiter-Glo ATP, 48 h; series mostly up to 45.8 µM; viability, % of DMSO control: at the top concentration", "procedure,_shortened": "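500 cells/well per myeloma line exposed to pinned MIPE 4.0 compounds for 48 h at 37 °C, 5% CO2. Viability read as ATP by CellTiter-Glo luminescence, normalised to DMSO-only (100%) and media-only (0%) wells.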", "values": [
      {"smiles": "Cc1oc(=O)oc1CN1CCN(c2cc3c(cc2F)c(=O)c(C(=O)O)c2n3C(C)S2)CC1", "note": "(stereo not drawn)", "Potency": "inconclusive: 37.2 µM [cytotoxic, partial curve, poor fit]"},
      {"smiles": "COc1cc(CNC(=O)CCCCC=CC(C)C)ccc1O", "Potency": "inconclusive: 0.0019 µM [rising, full curve, poor fit]"},
      {"smiles": "Nc1cccc(S(=O)(=O)N2CCCN(S(=O)(=O)c3ccc4c(c3)OCCO4)CC2)c1", "Potency": "inconclusive: 7.43 µM [cytotoxic, partial curve, poor fit]"},
      {"smiles": "COc1cc2c(c(OC)c1OC)-c1ccc(OC)c(=O)cc1[C@@H](NC(C)=O)CC2", "Potency": "inconclusive: 0.0105 µM [cytotoxic, full curve]"},
      {"smiles": "Oc1ccc([C@@H]2Oc3ccc(O)cc3[C@@H]3CCC[C@@H]32)cc1", "Potency": "active: 23.5 µM"},
      {"smiles": "N#CC(=C(N)Sc1ccc(N)cc1)c1ccccc1C(F)(F)F", "Potency": "active: 6.62 µM"},
      {"smiles": "CCNC(=O)Nc1ccc(Oc2ncnc(N)c2C=NOC)cc1Cl", "Potency": "inconclusive: 33.2 µM [cytotoxic, single point]"},
      {"smiles": "N#CC(c1ccc(Cl)cc1)c1c(Cl)cc(-n2ncc(=O)[nH]c2=O)cc1Cl", "note": "(stereo not drawn)", "viability, % of DMSO control": "inactive: 129%"},
      {"smiles": "Cc1ccc2c(=O)c3cccc(CC(=O)O)c3oc2c1C", "viability, % of DMSO control": "inactive: 134%"},
      {"smiles": "CN(C)CCN(Cc1ccc(Cl)cc1)c1ccccn1", "Potency": "active: 5.9 µM"},
      {"smiles": "CCN(CCO)CCCOc1ccc2c(Nc3cc(CC(=O)Nc4cccc(F)c4)[nH]n3)ncnc2c1", "viability, % of DMSO control": "inactive: 119%"},
      {"smiles": "N#CC(=C(O)c1ccc(Cl)cc1Cl)c1nc2cc(Cl)ccc2c(=O)[nH]1", "viability, % of DMSO control": "inactive: 157%"},
      {"smiles": "CCCCOCCOc1nc(-c2ccc(C(=O)O)c(F)c2)sc1C", "viability, % of DMSO control": "inactive: 141%"}
    ]}
  ]
}
